No constants are given. Whether binding was seen depends on the method and setting. In cells and extracts the contact can be indirect. Some results given as binding are weak or reduced against the parent protein; the word gives no strength.

Protein sequences, listed by entry. Tags and fused reporters are not part of them.
UniProt Q16666: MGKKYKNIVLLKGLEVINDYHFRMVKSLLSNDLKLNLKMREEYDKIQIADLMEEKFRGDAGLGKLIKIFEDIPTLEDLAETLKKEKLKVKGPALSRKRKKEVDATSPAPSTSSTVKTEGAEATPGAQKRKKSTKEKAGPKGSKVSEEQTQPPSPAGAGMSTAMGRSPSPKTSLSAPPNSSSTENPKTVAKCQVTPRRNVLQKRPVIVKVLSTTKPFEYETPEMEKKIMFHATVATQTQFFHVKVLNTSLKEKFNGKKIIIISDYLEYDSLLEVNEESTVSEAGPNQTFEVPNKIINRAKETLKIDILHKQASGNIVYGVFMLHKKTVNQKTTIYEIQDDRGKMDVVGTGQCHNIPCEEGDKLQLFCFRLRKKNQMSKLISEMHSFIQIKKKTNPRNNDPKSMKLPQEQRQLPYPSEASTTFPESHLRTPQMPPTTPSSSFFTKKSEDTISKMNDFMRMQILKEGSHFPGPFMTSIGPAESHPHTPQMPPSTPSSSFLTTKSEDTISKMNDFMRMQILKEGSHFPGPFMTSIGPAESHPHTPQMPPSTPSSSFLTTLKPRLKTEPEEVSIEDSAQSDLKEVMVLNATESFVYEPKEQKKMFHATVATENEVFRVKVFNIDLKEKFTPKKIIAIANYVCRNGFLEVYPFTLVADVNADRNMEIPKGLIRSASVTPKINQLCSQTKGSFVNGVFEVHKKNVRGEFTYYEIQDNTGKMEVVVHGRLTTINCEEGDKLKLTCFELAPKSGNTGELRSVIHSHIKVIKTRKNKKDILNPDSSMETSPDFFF
UniProt Q13547: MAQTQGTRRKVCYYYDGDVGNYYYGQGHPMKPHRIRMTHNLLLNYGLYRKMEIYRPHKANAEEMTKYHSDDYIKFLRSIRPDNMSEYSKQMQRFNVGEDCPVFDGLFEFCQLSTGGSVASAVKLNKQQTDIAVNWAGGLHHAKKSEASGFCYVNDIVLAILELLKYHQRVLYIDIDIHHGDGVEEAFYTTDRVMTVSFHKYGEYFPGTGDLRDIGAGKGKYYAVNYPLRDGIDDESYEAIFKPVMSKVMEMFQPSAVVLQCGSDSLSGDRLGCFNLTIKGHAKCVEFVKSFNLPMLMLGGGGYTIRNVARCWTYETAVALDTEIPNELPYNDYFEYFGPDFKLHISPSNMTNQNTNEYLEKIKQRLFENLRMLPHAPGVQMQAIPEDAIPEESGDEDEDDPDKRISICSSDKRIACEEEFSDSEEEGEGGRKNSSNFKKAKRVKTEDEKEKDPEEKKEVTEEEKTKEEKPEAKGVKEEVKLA
UniProt Q14839: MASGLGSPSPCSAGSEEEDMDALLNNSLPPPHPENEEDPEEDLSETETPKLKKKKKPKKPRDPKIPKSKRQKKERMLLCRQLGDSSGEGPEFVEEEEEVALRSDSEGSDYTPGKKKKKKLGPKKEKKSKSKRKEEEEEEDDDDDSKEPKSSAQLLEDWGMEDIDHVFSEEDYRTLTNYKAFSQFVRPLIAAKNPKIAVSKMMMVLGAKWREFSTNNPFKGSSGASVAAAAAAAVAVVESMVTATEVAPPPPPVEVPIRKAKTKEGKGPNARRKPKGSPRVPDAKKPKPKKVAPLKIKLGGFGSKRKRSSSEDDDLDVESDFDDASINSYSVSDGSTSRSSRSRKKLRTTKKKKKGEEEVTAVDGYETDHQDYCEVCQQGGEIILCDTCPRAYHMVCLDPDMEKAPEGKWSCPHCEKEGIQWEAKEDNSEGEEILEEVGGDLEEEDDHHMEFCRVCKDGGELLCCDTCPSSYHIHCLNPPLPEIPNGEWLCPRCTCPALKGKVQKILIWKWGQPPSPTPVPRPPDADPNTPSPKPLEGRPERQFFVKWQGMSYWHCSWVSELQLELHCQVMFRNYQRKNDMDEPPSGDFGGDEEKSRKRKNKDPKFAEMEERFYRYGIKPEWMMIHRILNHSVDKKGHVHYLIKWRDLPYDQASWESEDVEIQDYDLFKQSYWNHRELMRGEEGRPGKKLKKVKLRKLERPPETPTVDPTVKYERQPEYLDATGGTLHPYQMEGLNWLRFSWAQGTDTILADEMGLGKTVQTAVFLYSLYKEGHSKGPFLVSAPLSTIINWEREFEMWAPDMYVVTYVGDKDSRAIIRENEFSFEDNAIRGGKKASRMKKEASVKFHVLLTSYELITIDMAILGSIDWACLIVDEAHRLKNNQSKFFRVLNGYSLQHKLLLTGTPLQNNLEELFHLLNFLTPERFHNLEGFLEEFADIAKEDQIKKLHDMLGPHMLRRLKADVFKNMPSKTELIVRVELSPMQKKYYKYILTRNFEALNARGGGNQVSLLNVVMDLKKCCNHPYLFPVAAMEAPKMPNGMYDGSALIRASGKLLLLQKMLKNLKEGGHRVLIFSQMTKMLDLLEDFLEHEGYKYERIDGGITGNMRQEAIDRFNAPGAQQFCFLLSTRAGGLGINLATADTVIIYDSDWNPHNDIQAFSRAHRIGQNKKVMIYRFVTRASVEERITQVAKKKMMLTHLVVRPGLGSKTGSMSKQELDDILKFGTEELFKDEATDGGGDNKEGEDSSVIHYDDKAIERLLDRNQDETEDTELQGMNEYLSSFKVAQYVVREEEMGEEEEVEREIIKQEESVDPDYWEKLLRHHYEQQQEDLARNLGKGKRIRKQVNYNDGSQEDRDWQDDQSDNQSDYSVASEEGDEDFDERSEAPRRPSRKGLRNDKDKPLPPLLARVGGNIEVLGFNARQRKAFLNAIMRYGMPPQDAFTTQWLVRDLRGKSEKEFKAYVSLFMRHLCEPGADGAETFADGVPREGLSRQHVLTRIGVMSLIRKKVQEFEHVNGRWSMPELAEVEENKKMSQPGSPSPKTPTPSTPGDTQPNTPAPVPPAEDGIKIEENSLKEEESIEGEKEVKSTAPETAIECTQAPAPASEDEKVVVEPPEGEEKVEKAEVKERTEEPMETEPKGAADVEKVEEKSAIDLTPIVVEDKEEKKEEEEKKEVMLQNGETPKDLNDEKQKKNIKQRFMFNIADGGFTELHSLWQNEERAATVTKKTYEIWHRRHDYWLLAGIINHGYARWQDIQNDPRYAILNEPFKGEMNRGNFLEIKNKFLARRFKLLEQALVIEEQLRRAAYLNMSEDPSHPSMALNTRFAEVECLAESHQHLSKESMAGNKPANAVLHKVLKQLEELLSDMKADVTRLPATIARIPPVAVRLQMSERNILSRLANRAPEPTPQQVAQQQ
UniProt Q9UKL0: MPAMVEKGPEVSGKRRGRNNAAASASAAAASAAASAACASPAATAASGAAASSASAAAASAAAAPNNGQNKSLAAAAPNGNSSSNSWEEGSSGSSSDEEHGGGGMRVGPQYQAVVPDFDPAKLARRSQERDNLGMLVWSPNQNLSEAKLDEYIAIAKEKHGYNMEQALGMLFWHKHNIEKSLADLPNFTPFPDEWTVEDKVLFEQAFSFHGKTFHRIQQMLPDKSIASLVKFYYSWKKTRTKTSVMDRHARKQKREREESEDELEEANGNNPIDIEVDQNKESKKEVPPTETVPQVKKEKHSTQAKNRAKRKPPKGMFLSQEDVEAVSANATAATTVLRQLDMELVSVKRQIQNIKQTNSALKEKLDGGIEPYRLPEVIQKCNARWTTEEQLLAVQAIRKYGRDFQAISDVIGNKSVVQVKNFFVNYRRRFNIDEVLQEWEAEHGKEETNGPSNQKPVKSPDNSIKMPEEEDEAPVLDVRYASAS

Assay [1] deals with interferon gamma-inducible protein 16 (IFI16) (human (endogenous in BCBL-1)) (UniProt Q16666). As to the kind of experiment: proximity ligation; DUOLink PLA in acetone-fixed and permeabilized BCBL-1 cells; IFI16 antibody with antibody to CHD4, Sin3A, CoREST or IgG; dots counted in at least 15 cells.
The target in assay [2] is histone deacetylase 1 (HDAC1) (human (endogenous in BCBL-1)) (UniProt Q13547). As to the kind of experiment: proximity ligation; DUOLink PLA of HDAC1 with CHD4 or Sin3A in BCBL-1 cells transduced with control shRNA (shC) or shIFI16 (IFI16 knock-down).

Consider CHD4 (from UniProt Q14839 1-1912), for which the binding result in assay [1] and in assay [2] was “binds” in each case.

With CoREST (from UniProt Q9UKL0 1-485), the binding result in assay [1] is given as “no binding”.

Values taken from article PMC12300445.
